Results taken from publication PMC11906015.
No constants are given. Whether binding was seen depends on the method and setting. In cells and extracts the contact can be indirect. Some entries that bind do so weakly or less than the wild type.

Target: PTEN G132D (phosphatase and tensin homolog, germline variant G132D) (human (endogenous in hiPSC)) (UniProt P60484)
Experiment: co-IP; PTEN immunoprecipitated with antibody-loaded magnetic beads from M-PER lysate (75-100 ug protein, 1 ug/uL) of homozygous hiPSCs, overnight at 4°C; cells before and after 3 Gy irradiation; co-precipitated p53 detected by western blot

## p53 (from UniProt P04637 1-393)
  binding: binds
